Protein sequences, listed by entry. Tags and fused reporters are not part of them. Lines headed by an entry give the natural chain unless they say otherwise; changes in a name come on top. Residues count along the entry.
UniProt P0DF96, residues 34-571: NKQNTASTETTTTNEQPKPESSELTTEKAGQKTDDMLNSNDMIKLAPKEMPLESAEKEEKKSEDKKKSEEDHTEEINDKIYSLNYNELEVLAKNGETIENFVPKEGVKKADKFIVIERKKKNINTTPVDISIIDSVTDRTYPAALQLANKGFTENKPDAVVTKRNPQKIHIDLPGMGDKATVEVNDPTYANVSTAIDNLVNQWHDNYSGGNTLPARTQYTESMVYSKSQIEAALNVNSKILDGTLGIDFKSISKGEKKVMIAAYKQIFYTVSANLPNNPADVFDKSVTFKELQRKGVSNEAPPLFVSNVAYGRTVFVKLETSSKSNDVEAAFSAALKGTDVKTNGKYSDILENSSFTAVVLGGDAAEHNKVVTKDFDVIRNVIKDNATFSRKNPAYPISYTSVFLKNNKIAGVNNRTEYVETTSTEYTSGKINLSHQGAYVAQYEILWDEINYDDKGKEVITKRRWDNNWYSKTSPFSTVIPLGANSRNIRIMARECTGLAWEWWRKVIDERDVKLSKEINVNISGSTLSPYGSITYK
UniProt P02649, residues 19-317: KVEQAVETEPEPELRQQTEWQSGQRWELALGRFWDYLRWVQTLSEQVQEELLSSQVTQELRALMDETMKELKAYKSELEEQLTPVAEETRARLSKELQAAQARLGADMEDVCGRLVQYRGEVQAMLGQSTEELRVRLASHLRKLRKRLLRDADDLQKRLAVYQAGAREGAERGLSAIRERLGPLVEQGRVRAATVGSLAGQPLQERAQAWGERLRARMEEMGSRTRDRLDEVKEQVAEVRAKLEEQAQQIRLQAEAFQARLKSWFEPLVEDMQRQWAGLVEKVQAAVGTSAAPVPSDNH
UniProt P10909: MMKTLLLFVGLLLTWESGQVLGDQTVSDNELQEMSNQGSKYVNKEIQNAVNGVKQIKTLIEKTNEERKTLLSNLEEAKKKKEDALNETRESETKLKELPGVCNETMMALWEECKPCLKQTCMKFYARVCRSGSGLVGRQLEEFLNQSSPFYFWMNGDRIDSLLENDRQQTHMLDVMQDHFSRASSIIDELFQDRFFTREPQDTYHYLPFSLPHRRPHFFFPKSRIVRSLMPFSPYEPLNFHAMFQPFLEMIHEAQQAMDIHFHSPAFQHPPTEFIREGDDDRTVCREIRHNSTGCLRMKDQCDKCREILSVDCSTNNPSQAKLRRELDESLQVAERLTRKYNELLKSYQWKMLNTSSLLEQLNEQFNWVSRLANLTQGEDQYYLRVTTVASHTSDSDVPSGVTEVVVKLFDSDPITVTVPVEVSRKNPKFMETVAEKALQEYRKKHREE

In PMC11589678:

B1: plasma protease C1 inhibitor (protein, UniProt P05155 23-500)
chain: NPNATSSSSQDPESLQDRGEGKVATTVISKMLFVEPILEVSSLPTTNSTTNSATKITANTTDEPTTQPTTEPTTQPTIQPTQPTTQLPTDSPTQPTTGSFCPGPVTLCSDLESHSTEAVLGDALVDFSLKLYHAFSAMKKVETNMAFSPFSIASLLTQVLLGAGENTKTNLESILSYPKDFTCVHQALKGFTTKGVTSVSQIFHSPDLAIRDTFVNASRTLYSSSPRVLSNNSDANLELINTWVAKNTNNKISRLLDSLPSDTRLVLLNAIYLSAKWKTTFDPKKTRMEPFHFKNSVIKVPMMNSKKYPVAHFIDQTLKAKVGQLQLSHNLSLVILVPQNLKHRLEDMEQALSPSVFKAIMEKLEMSKFQPTLLTLPRIKVTTSQDMLSIMEKLEFFDFSYDLNLCGLTEDPDLQVSAMQHQTVLELTETGVEAAAASAISVARTLLVFEVQQPFLFVLWDQQHKFPVFMGRVYDPRA

Biological target: streptolysin O (Streptococcus pyogenes (group A Streptococcus)) (UniProt P0DF96)
Assay: affinity purification with mass spectrometry; 40 ug tagged bait immobilised on Strep-Tactin Sepharose; incubated with undiluted, 50% or 10% pooled human plasma (in PBS) at 37 °C, 500 rpm, 2 h; washed with ice-cold PBS, eluted with 5 mM biotin; tagged GFP and SCPA as reference baits; LC-MS/MS (DDA and DIA), MiST score and t-tests; only the target purified

Row | Molecule | binding
1 | apolipoprotein E (from UniProt P02649 19-317) | binds
2 | clusterin (from UniProt P10909 23-227; P10909 228-449) | binds
3 | B1 | binds

Results are given in words; binding and its absence hold for the method and conditions named. In cells and extracts the contact can be indirect. These calls come from enrichment with a bait or labelling near it, and not all partners need be listed.
